Source: patent publication US10001489B2, “Method for constructing a novel affinity peptide library for binding immunoglobulin G based on a protein affinity model of protein A” (TIANJIN UNIVERSITY, priority 2012, dated 2018)
Results are given in words; binding and its absence hold for the method and conditions named. Some results given as binding are weak or reduced against the parent protein; the word gives no strength.

Sequences of proteins named here, by UniProt entry; tags and fusion partners are left off. Residues count along the entry.
UniProt P02769, residues 25-607: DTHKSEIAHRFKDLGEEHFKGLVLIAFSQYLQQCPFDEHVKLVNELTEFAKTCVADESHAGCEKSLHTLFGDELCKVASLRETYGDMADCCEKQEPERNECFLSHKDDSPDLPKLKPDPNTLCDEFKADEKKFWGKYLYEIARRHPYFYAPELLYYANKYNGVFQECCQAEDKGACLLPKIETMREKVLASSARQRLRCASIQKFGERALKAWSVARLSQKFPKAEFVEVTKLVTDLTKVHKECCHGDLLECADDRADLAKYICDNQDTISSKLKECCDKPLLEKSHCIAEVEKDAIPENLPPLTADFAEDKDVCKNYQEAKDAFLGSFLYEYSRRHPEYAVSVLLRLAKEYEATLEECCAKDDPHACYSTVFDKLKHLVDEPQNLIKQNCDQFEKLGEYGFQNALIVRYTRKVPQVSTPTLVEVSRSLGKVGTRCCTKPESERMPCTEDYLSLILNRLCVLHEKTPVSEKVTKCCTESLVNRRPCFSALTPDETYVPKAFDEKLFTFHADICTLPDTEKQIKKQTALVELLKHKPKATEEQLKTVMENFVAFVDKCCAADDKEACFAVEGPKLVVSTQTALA

Target: bovine serum albumin (bovine) (UniProt P02769)
Assay: affinity chromatography, peptide immobilized on Thiopropyl Sepharose 6B, pulse injection of protein

For FYWHCLDE (Cys immobilized onto Thiopropyl Sepharose 6B gel via disulfide bond) [FYWHCLDE peptide ligand], the binding was “binds”.
